Test results taken from article PMC4646521.
These are yes or no findings as the source states them, for the method shown. Binding seen in cells or lysates may run through a third protein. Some binding calls cover weakened binding; strength is not graded here.

Amino acid sequences for entries named in this document (tags omitted).
UniProt P50750: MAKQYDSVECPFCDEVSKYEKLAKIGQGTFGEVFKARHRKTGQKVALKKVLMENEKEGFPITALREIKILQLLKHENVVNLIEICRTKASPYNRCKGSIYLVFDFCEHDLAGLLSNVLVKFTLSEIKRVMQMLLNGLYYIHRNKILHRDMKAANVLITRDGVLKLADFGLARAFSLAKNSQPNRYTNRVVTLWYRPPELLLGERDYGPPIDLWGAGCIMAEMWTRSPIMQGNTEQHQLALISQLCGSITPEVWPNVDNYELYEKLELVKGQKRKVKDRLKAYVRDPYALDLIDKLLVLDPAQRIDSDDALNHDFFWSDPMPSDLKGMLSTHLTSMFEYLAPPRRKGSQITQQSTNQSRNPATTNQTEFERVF
UniProt O94992: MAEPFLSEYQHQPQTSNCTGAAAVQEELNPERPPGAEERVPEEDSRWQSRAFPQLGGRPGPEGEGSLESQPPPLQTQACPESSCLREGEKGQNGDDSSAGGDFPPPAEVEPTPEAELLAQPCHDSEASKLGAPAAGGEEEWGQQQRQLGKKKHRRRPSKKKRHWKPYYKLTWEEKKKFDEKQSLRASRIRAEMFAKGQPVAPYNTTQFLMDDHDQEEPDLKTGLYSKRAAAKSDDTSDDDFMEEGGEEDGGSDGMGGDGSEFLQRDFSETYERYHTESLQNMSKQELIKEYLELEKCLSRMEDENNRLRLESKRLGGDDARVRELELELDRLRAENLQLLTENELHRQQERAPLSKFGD

Molecular target: CDK9 (human (endogenous in J-Lat A2 and HeLa)) (UniProt P50750)
Assay: co-IP

binding | Molecule
binds | HEXIM1 (from UniProt O94992 1-359)
binds | LARP7 (protein, UniProt Q4G0J3 1-582) METESGNQEKVMEEESTEKKKEVEKKKRSRVKQVLADIAKQVDFWFGDANLHKDRFLREQIEKSRDGYVDISLLVSFNKMKKLTTDGKLIARALRSSAVVELDLEGTRIRRKKPLGERPKDEDERTVYVELLPKNVNHSWIERVFGKCGNVVYISIPHYKSTGDPKGFAFVEFETKEQAAKAIEFLNNPPEEAPRKPGIFPKTVKNKPIPALRVVEEKKKKKKKKGRMKKEDNIQAKEENMDTSNTSISKMKRSRPTSEGSDIESTEPQKQCSKKKKKRDRVEASSLPEVRTGKRKRSSSEDAESLAPRSKVKKIIQKDIIKEASEASKENRDIEISTEEEKDTGDLKDSSLLKTKRKHKKKHKERHKMGEEVIPLRVLSKSEWMDLKKEYLALQKASMASLKKTISQIKSESEMETDSGVPQNTGMKNEKTANREECRTQEKVNATGPQFVSGVIVKIISTEPLPGRKQVRDTLAAISEVLYVDLLEGDTECHARFKTPEDAQAVINAYTEINKKHCWKLEILSGDHEQRYWQKILVDRQAKLNQPREKKRGTEKLITKAEKIRLAKTQQASKHIRFSEYD
